PubChem BioAssay AID1508588 – Peter MacCallum Cancer Centre | 2020
Purpose: 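Which gene losses make BRAF-mutant melanoma cells more responsive to vemurafenib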 (primary screen). Cells: human WM266.4 melanoma cells (BRAF V600 mutant). Reagent: siRNA pool against human genes, 40 nM. Time to read-out: 96 h from transfection to read-out. Conditions: vemurafenib 300 nM (about IC25), added 48 h after transfection, for 48 h; comparison arm got DMSO vehicle only. Read-out: 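Cell gain (DAPI nuclei at end minus before drug, mean of two replicates) and medium lactate by absorbance per cell, both as ratio to non-targeting siRNA, also grouped into fold-change classes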. Direction: cell gain with vemurafenib: higher = more cell gain than with non-targeting siRNA; lactate per cell with vemurafenib: higher = more lactate made per cell. Call rule: 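Enhancement is called by pairing each knock-down's vehicle-arm and drug-arm fold-change classes for viability or glycolysis; which class combinations qualify is not given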. Calls: active = enhances vemurafenib effect; inactive = no enhancement seen.
Shown is an unselected part of about 18,000 reagents. Over the whole deposit, 790 (4.4%) were called active. 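Calls rest on a combination of fold-change classes in drug and vehicle arms, not all shown here.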 Unmarked entries are inactive. Reagent sequences are not shown.

| gene knocked down | cell gain with vemurafenib | lactate per cell with vemurafenib |
| --- | --- | --- |
| MOGAT3 (monoacylglycerol O-acyltransferase 3) | 1.26 | 0.34 |
| TYK2 (tyrosine kinase 2) | 0.7 (active) | 0.47 |
| PLIN3 (perilipin 3) | 0.18 | 3.09 |
| SNRNP70 (small nuclear ribonucleoprotein U1 subunit 70) | 0.4 | 0.5 |
| COX15 (cytochrome c oxidase assembly factor COX15) | 0.39 | 1.25 |
| ENTPD8 (ectonucleoside triphosphate diphosphohydrolase 8) | 0.83 | 0.88 |
| OIP5 (Opa interacting protein 5) | 0.68 | 1.38 |
| TTC39C (tetratricopeptide repeat domain 39C) | 0.79 | 0.99 |
| SALL2 (spalt like transcription factor 2) | 0.65 | 0.25 |
| PPIL6 (peptidylprolyl isomerase like 6) | 0.97 | 0.78 |
| GHR (growth hormone receptor) | 0.27 | 0.43 |
| UBXN4 (UBX domain protein 4) | 0.91 | 0.9 |
| ACSS3 (acyl-CoA synthetase short chain family member 3) | 0.73 | 0.87 |
| LTAP1 (lipid transport auxiliary protein 1) | 0.07 | 2.17 |
| BOLA1 (bolA family member 1) | 0.61 | 1.04 |
| CCDC116 (coiled-coil domain containing 116) | 0.24 | 2.15 |
| LSM7 | 0.37 (active) | 0.52 |
| ETV5 (ETS variant transcription factor 5) | 0.77 | 0.71 |
| KIF13A (kinesin family member 13A) | 0.91 | 0.68 |
| OR4F4 (olfactory receptor family 4 subfamily F member 4) | 1.1 | 0.66 |
| GOLGA2P5 (GOLGA2 pseudogene 5) | 0.32 | 1.26 |
| PABPN1L (PABPN1 like, cytoplasmic) | 0.13 | 1.35 |
| AIMP2 | 0.7 | 1.12 |
| ATAD2 (ATPase family AAA domain containing 2) | 0.72 | 0.69 |
| SF3A3 (splicing factor 3a subunit 3) | 0.23 | 1.31 |
| SWT1 (SWT1 RNA endoribonuclease homolog) | 0.61 | 0.3 |
| CEACAM4 (CEA cell adhesion molecule 4) | 0.18 | 2.29 |
| ZNF502 (zinc finger protein 502) | 0.23 | 1.44 |
| ZNF281 (zinc finger protein 281) | 0.65 | 1.29 |
| PON1 (paraoxonase 1) | 0.76 | 0.76 |
| DGCR6L (DiGeorge syndrome critical region gene 6 like) | -0.04 | 1.1 |
| HPCAL1 (hippocalcin like 1) | 0.82 | 0.78 |
| GLB1L (galactosidase beta 1 like) | 0.85 | 0.62 |
| OAZ2 (ornithine decarboxylase antizyme 2) | 0.93 | 1.23 |
| LMF2 (lipase maturation factor 2) | 0.58 | 0.86 |
| CHST9 (carbohydrate sulfotransferase 9) | 0.11 | 1.22 |
| FZD8 (frizzled class receptor 8) | 0.4 | 1.36 |
| CACNA1G (calcium voltage-gated channel subunit alpha1 G) | 0.45 | 1.08 |
| EPHA5 (EPH receptor A5) | 1.04 | 0.57 |
| NPEPPS (aminopeptidase puromycin sensitive) | 0.83 | 1.3 |
| IRF8 (interferon regulatory factor 8) | 0.61 | 0.83 |
| WARS1 (tryptophanyl-tRNA synthetase 1) | 0.7 | 1.24 |
| SELL (selectin L) | 0 | 0 |
| FOXJ3 (forkhead box J3) | 0.59 | 0.45 |
| FGF7 (fibroblast growth factor 7) | 0.69 | 0.6 |
| GRIN2C (glutamate ionotropic receptor NMDA type subunit 2C) | 0.44 | 1.07 |

10 entries from above, set out differently.
LTAP1 (lipid transport auxiliary protein 1)
- cell gain with vemurafenib: 0.07
- lactate per cell with vemurafenib: 2.17

BOLA1 (bolA family member 1)
- cell gain with vemurafenib: 0.61
- lactate per cell with vemurafenib: 1.04

CCDC116 (coiled-coil domain containing 116)
- cell gain with vemurafenib: 0.24
- lactate per cell with vemurafenib: 2.15

LSM7
- cell gain with vemurafenib: 0.37 (active)
- lactate per cell with vemurafenib: 0.52

ETV5 (ETS variant transcription factor 5)
- cell gain with vemurafenib: 0.77
- lactate per cell with vemurafenib: 0.71

KIF13A (kinesin family member 13A)
- cell gain with vemurafenib: 0.91
- lactate per cell with vemurafenib: 0.68

OR4F4 (olfactory receptor family 4 subfamily F member 4)
- cell gain with vemurafenib: 1.1
- lactate per cell with vemurafenib: 0.66

GOLGA2P5 (GOLGA2 pseudogene 5)
- cell gain with vemurafenib: 0.32
- lactate per cell with vemurafenib: 1.26

PABPN1L (PABPN1 like, cytoplasmic)
- cell gain with vemurafenib: 0.13
- lactate per cell with vemurafenib: 1.35

AIMP2
- cell gain with vemurafenib: 0.7
- lactate per cell with vemurafenib: 1.12

Further results follow:
| gene knocked down | cell gain with vemurafenib | lactate per cell with vemurafenib |
| --- | --- | --- |
| INF2 (inverted formin 2) | 0.64 | 0.63 |
| COX8C (cytochrome c oxidase subunit 8C) | 0.73 | 0.88 |
| PRR22 (proline rich 22) | 0.32 | 1.29 |
| HPS4 (HPS4 biogenesis of lysosomal organelles complex 3 subunit 2) | 0.12 (active) | 1.17 |
| PGAM2 (phosphoglycerate mutase 2) | 1.07 | 0.7 |
| SV2B (synaptic vesicle glycoprotein 2B) | 0.76 | 1.45 |
| SULF2 (sulfatase 2) | 0.74 | 0.67 |
| MUC15 (mucin 15, cell surface associated) | 0.63 | 1.36 |
| LINC01587 (long independently transcribed non-coding RNA 1587) | 0.94 | 0.76 |
| ASCC2 (activating signal cointegrator 1 complex subunit 2) | 0.46 | 1.01 |
| AAMDC (adipogenesis associated Mth938 domain containing) | 0.33 | 0.99 |
| CAPN3 (calpain 3) | 0.64 | 1.04 |
| PRLR (prolactin receptor) | 0.67 | 0.94 |
| PRELID2 (PRELI domain containing 2) | 0.9 | 0.58 |
| GCKR (glucokinase regulator) | 1.08 | 0.8 |
| SYT15 (synaptotagmin 15) | 0.08 | 0.89 |
| NHLH2 (nescient helix-loop-helix 2) | 0.52 | 0.79 |
| TMEM252 (transmembrane protein 252) | 0.73 | 0.72 |
| OR11G2 (olfactory receptor family 11 subfamily G member 2) | 0.5 | 1.85 |
| RNF111 (ring finger protein 111) | 0.53 | 0.79 |
| ACSM5 (acyl-CoA synthetase medium chain family member 5) | 0.24 | 1.07 |
| POU2AF1 (POU class 2 homeobox associating factor 1) | 0.67 | 1.48 |
| HMGB1 (high mobility group box 1) | 0.62 | 1.46 |
| NEK6 (NIMA related kinase 6) | 0.65 | 1.32 |
| RBM39 (RNA binding motif protein 39) | 0.71 | 1.33 |
| CACNG7 (calcium voltage-gated channel auxiliary subunit gamma 7) | 0.55 | 1.19 |
| MINK1 (misshapen like kinase 1) | 0.41 | 1 |
| NCAPG (non-SMC condensin I complex subunit G) | 0.82 | 0.81 |
| NME4 (NME/NM23 nucleoside diphosphate kinase 4) | 0.83 | 0.57 |
| CMKLR2 (chemerin chemokine-like receptor 2) | 0.57 | 0.84 |
| LAMTOR3 (late endosomal/lysosomal adaptor, MAPK and MTOR activator 3) | 1.1 | 0.77 |
| SOHLH1 | 1.11 | 0.88 |
| DYRK1B | 0.45 | 1.2 |
| ULK3 (unc-51 like kinase 3) | 0.74 | 1.06 |
| COL24A1 (collagen type XXIV alpha 1 chain) | 0.58 | 0.78 |
| ANGPTL1 (angiopoietin like 1) | 0.82 | 1.27 |
| FXYD2 (FXYD domain containing ion transport regulator 2) | 0.21 | 1.12 |
| MCTP2 (multiple C2 and transmembrane domain containing 2) | 0.89 | 0.74 |
